Results: paper PMC10163288
This is one part of the list.

B1: il2ra_site2_2erj_sap_26_mot_HHH_b1_00714_af2_000000008_0001_20_37_H_._22aa8d8ad8dce7f663ea8fa348a52261_0001_af2_0001_0000400012_0000001_0_0001 (protein)
chain: SSSSSHEEEVERLLEEAREAYERGDLHEVYRLAAEAMHVASKHNDDELLQKIAEFIEELSSSSSS
B2: il2ra_site2_3nfp_sap_28_mot_HHH_b1_03574_000000239_0001_1_18_H_._2f10428d1ec81e89baed431bc543484b_0001_1_0001_0001100038_0000001_0_0001 (protein)
chain: SSSSDEEEREVRELLEEIQKLIEEGDPEKVEEALRRVANLVFEIGNFELFAEVAELLLEIASSSS
B3: il2ra_site1_3nfp_sap_11_mot_1dfc56a8f07a39e834a69883c800ee5d_0001_1_af2_000000099_0001_1_15_H_._HHH_b1_01993_0001_0000100002_0000001_0_0001_af2pred_0001_1_af2pr … (protein)
chain: SSSSSSSQELLRFVAELAEELGLSHEQSRELMHLLAKLLLRGISPEEIEEILKEYAERLSSSSSS
B4: il2ra_site2_3nfp_sap_20_mot_HHH_b2_05281_000000198_0001_39_56_H_._c58d1d15de78a75bbff7b234e0f533b8_0001_af2_0001_0000200013_0000001_1_0001 (protein)
chain: SSSSDKVEQLEEAVKRLIKEIPDPEDRRKLEELLEELEEEGDPELAFELFALAAELLYKYSSSSS
B5: il2ra_site1_2b5i_sap_20_mot_HHH_b2_03886_000000131_0001_1_17_H_._092036b618aed672410521e3cd842e06_0001_1_0001_0000100001_0000001_0_0001_af2pred_dldesign_0_af2pr … (protein)
chain: SSSSSDLKAEVLKLIEKARELAAAGKRREALELLEEAYKLADKLNDDALLDEIEALARELSSSSS
B6: il2ra_site2_3nfp_sap_32_mot_HHH_b1_00548_000000069_0001_37_55_H_._871c942bffecba610830e7017620cd14_0001_1_af2_0001_0000400017_0000001_0_0001 (protein)
chain: SSSSSEEVKELLEELKELLEKNDEERFRELVRRIAHLVFELNDEEAFYRLAELLLLFVRRRSSSS
B7: il2ra_site2_2erj_normal_mot_HHH_b1_00376_000000139_0001_38_52_H_._ad785faee86527911bc0efce130472f5_0001_0001_0000400024_0000001_0 (protein)
chain: SEEEEEELLREAGLSPAEIRFFLRQVQLLAERFNVPPEEAIKLLLEWAERLGNDNLERAAEVLLK
B8: il2ra_site1_1z92_normal_mot_HHH_b2_04375_000000267_0001_42_56_H_._HHH_b2_04498_0001_0000200019_0000001_0_af2pred_0001_af2pred_1 (protein)
chain: SSSSSDEEERIVEELIEELGGSEEVKRAAEKDAEIARKQGISEENIRKALERAIRFDIELSSSSS
B9: il2ra_site1_2b5i_sap_20_mot_6169ea741eebcbe25a7a19b2986e1e54_0001_1_af2_000000158_0001_1_13_H_._15a03ae7649ebbac21f4683df9edff8e_0001_af2_0001_0000500038_000000 … (protein)
chain: SSSSSSSLEEQVEELIELAEKEEDPLERERILKLARLVAKKAKDPELVARVEAKRAELSSSSSSS
B10: il2ra_site2_3nfp_sap_12_mot_968ffe68aa11d68c04d2634bf871f227_0001_1_af2_000000211_0001_1_14_H_._ems_3hM_1371_0001_0000100004_0000001_0_0001 (protein)
chain: SEVEELVERALEENDPRDLFAALADLQNLLDIPPREAREILLEIIEQILKVPPEEAEELLQKALQ
B11: il2ra_site2_2erj_normal_mot_HHH_b2_08005_af2_000000017_0001_39_52_H_._HHH_b2_00725_0001_0000200028_0000001_0 (protein)
chain: SSSSSERLHEAFEAASRLMHLAYRGDEEEFERLFEEILEKVEEAGDEVLAEAIREVFHTLTSSSS
B12: il2ra_site2_3nfp_sap_9_mot_HHH_b1_07033_af2_000000007_0001_23_39_H_._b07f7a83e2292eca9764c844902b0b3e_0001_1_0001_0000600016_0000001_1_0001 (protein)
chain: PEELVEEIIELIERGDPRAEEAAMKLAHEAWERNDPELFFVAALLAAAVFDGDPRYLEEAERSLR
B13: il2ra_site2_2erj_normal_mot_HHH_b2_00494_000000216_0001_41_54_H_._HHH_b1_07802_af2_0001_0000300011_0000001_0 (protein)
chain: SSSSNEELRRLYELADEALRLITEGNPEEAEKVLEEARELAERLNSENAREVVEFLEELLESSSS
B14: il2ra_site2_2erj_sap_16_mot_HHH_b1_00941_000000051_0001_45_58_H_._HHH_b2_03323_0001_0000600045_0000001_0_0001_af2pred_0001_af2pred (protein)
chain: SSSSSSSREEVEELLEEAKRIEDLREVLRLLQEADKIAAENEDEELLREIEKVFEELVSSSSSSS
B15: il2ra_site1_3nfp_normal_mot_HHH_b1_07204_af2_000000238_0001_41_55_H_._HHH_b2_04441_0001_0000100003_0000001_0 (protein)
chain: SSSSTEELERLLELVEEAFRAAQEGDEELVEELLEEAKELAEKLGDKIALRLLEDIEEQLSSSSS
B16: il2ra_site2_3nfp_normal_mot_HHH_b1_05628_af2_000000064_0001_19_35_H_._HHH_b1_08457_0001_0000100003_0000001_1 (protein)
chain: SSSSDAEERVKELEEELREAEKEGDEELLEKLAFELFALASDLQDRRLAAFAAELFIKLKSSSSS
B17: il2ra_site1_3nfp_normal_mot_HHH_b2_04095_af2_000000160_0001_43_56_H_._HHH_b1_04304_0001_0000200029_0000001_1 (protein)
chain: SSSSSEEIREFQEIAREVLRLLREGDREEAEELIERLEELAREANSKAAERLVEQLKESASSSSS
B18: il2ra_site2_3nfp_normal_mot_HHH_b1_05627_af2_000000038_0001_43_56_H_._HHH_b1_04379_0001_0000600032_0000001_0 (protein)
chain: SSSSDKAEEYLEAALIALEEAIEEGNEEAVEELIRAIKLLAENANDEEIERLLEKLEEEFSSSSS
B19: il2ra_site2_2erj_sap_9_mot_HHH_b1_00071_af2_000000225_0001_40_56_H_._HHH_b1_00954_0001_0000200010_0000001_0_0001_1 (protein)
chain: SSSSLHELYELANAAAHAATLAVERGDPELYQRLWRLMKELLETGDPELFEELRELVEEIRSSSS
B20: il2ra_site1_1z92_sap_24_mot_HHH_b1_03199_000000116_0001_40_57_H_._HHH_b2_00739_af2_0001_0000100002_0000001_1_0001_af2pred_0001_af2pred (protein)
chain: SLAEEAVEDAKKHTPDPESIAKFLIKLLATIYQIPPEEAIEIAEEIAKELGDEELLKALEELKKK
B21: il2ra_site1_3nfp_sap_20_mot_HHH_b1_08723_000000044_0001_1_15_H_._HHH_b1_03120_af2_0001_0000500033_0000001_0_0001 (protein)
chain: SRTIELAIELARKQDEEMAELLEEVVRLYKEKGDPELKELLQEALHLIAKGDPEEAKKVLEEALK
B22: il2ra_site2_3nfp_normal_mot_HHH_b1_07242_000000112_0001_19_39_H_._ems_3hM_250_0001_0000200004_0000001_0 (protein)
chain: SNEELERYIEAALRLAKEAARDPRIQELIERVLEEFEEAKEKNDEHALSEVAQLALELAEEAAKS
B23: il2ra_site2_3nfp_sap_17_mot_HHH_b2_06150_000000217_0001_39_53_H_._HHH_b2_00252_0001_0001000040_0000001_0_0001 (protein)
chain: SSSSSDKREEYLRAVLAVAREAAKEDPELARKLAELLERAIKDAGDEELRELVEELLEELSSSSS
B24: il2ra_site2_3nfp_normal_mot_HHH_b1_00050_000000292_0001_22_38_H_._HHH_b1_03210_af2_0001_0000100002_0000001_0 (protein)
chain: SSSSNLSTRIFELLEILKELGDDRAVLRVYAIALEAYRKRDPELYEEAEQLAEKLIEELRSSSSS

Each binder was assayed against il2ra, P01589 (assay: yeast display titration).

Apparent Kd, inactive:
B1 no binding seen
B2 no binding seen
B3 no binding seen
B4 no binding seen
B5 no binding seen
B6 no binding seen
B7 no binding seen
B8 no binding seen
B9 no binding seen
B10 no binding seen
B11 no binding seen
B12 no binding seen
B13 no binding seen
B14 no binding seen
B15 no binding seen
B16 no binding seen
B17 no binding seen
B18 no binding seen
B19 no binding seen
B20 no binding seen
B21 no binding seen
B22 no binding seen
B23 no binding seen
B24 no binding seen

As a short view, part of the list above:
Apparent Kd, inactive:
B14 no binding seen
B15 no binding seen
